{"source": "paper PMC3406092", "binders": {"B1": {"name": "MecI, repressor of mecA, from S. aureus strain N315 (protein, UniProt P68262 1-123)", "chain": "MDNKTYEISSAEWEVMNIIWMKKYASANNIIEEIQMQKDWSPKTIRTLITRLYKKGFIDRKKDNKIFQYYSLVEESDIKYKTSKNFINKVYKGGFNSLVLNFVEKEDLSQDEIEELRNILNKK"}}, "target": "MecI, repressor of mecA, from S. aureus strain N315 (Staphylococcus aureus (strain N315)) (UniProt P68262)", "assay": "two-hybrid; bacterial two-hybrid (restoration of CyaA from T25 and T18 fusions) in E. coli BTH101; lacZ reporter read by X-gal hydrolysis in liquid cultures; fusions at the N' or C' terminals in all combinations", "note": "These are yes or no findings as the source states them, for the method shown. Some entries that bind do so weakly or less than the wild type.", "data": [{"binder": "B1", "values": [{"measurement": "binding", "value": "binds"}]}]}
